Binding data for three molecules are collected here from publication PMC6044281.

Assay [1] concerns the target T1, human HOIL-1L WT (expressed in HEK293T HOIP KO cells) (human), Q9BYM8.
T1 chain: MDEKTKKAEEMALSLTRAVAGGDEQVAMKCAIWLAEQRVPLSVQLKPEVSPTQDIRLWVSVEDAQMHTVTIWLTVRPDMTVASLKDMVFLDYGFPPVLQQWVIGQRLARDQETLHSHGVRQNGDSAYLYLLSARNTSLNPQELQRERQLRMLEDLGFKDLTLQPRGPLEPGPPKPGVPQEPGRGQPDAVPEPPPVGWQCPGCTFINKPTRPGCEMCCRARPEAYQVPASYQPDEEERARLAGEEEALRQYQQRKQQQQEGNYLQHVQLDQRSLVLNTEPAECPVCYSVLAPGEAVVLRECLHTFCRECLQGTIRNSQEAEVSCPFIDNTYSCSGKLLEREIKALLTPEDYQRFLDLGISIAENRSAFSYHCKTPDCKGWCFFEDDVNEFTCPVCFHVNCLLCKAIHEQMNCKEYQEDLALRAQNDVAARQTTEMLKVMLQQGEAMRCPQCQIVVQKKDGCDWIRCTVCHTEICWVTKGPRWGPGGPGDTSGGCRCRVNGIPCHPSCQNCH
Briefly: co-IP; expression plasmids transfected into HEK293T HOIP KO cells; anti-FLAG immunoprecipitates immunoblotted. The following applies: remark: other sources report otherwise.

Assay [2] has as its target T2, mHOIL-1L WT (expressed in HEK293T HOIP KO cells) (mouse) (UniProt Q9WUB0).
T2 sequence: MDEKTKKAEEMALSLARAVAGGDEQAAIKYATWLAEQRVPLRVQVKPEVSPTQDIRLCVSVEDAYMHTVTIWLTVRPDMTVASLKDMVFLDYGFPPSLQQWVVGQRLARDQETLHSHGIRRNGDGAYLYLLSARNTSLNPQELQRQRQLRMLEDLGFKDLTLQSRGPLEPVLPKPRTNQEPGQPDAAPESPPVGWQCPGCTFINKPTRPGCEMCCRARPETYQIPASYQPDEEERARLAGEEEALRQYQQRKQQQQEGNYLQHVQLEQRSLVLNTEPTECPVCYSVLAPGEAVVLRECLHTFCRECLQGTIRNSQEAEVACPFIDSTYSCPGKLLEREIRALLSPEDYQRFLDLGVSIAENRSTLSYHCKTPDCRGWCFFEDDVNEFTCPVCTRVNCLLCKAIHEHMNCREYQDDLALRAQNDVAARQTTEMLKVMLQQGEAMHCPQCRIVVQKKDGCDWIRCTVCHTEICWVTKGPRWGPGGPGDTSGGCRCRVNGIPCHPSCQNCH
The assay is described as above.

The target in assay [3] is T3, mHOIL-1L_(1–189)-strep (mouse) (UniProt Q9WUB0).
T3 sequence: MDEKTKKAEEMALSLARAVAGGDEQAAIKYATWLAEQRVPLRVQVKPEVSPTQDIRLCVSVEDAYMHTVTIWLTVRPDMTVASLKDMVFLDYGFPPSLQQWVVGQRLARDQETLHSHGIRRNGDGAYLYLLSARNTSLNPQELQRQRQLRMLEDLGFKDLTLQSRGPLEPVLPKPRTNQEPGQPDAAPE
Description: SPR; mHOIL-1L_(1–189)-strep immobilised on the sensor chip with anti-strep antibody; MBP-mSHARPIN fragments as analytes; both purified.

No constants are given. Whether binding was seen depends on the method and setting. For part of these data: In cells and extracts the contact can be indirect. Some results given as binding are weak or reduced against the parent protein; the word gives no strength. For part of these data: Tags and fused reporters may be left off the sequences shown.

B1: SHARPIN co-expressed with human HOIL-1L in HEK293T HOIP KO cells, Q9H0F6 1-387 (protein)
chain: MAPPAGGAAAAASDLGSAAVLLAVHAAVRPLGAGPDAEAQLRRLQLSADPERPGRFRLELLGAGPGAVNLEWPLESVSYTIRGPTQHELQPPPGGPGTLSLHFLNPQEAQRWAVLVRGATVEGQNGSKSNSPPALGPEACPVSLPSPPEASTLKGPPPEADLPRSPGNLTEREELAGSLARAIAGGDEKGAAQVAAVLAQHRVALSVQLQEACFPPGPIRLQVTLEDAASAASAASSAHVALQVHPHCTVAALQEQVFSELGFPPAVQRWVIGRCLCVPERSLASYGVRQDGDPAFLYLLSAPREAPATGPSPQHPQKMDGELGRLFPPSLGLPPGPQPAASSLPSPLQPSWSCPSCTFINAPDRPGCEMCSTQRPCTWDPLAAAST
Take B1: the binding entry in assay [1] is reported as “binds”.

B2: mSHARPIN WT (expressed in HEK293T HOIP KO cells) (protein, UniProt Q91WA6 1-380)
chain: MSPPAGGAAVAADPASPVVLLAVHAAVRPLGAGQDAEAQPRKLQLIADPERPGRFRLGLLGTEPGAVSLEWPLEAICYTVRGPNQHELQPPPGGPGTFSVHFLDPEEAQQWAALVRDATAEGQNGSGSPAPAPAPAMCPISPPCSSMAQIPKATQPEVDLPQSSGNFKKEELATRLSQAIAGGDEKAAAQVAAVLAQHHVALNVQLMEAWFPPGPIRLQVTVEDATSVLSSSSSAHVSLKIHPHCSIAALQDQVFSEFGFPPAVQRWVIGRCLCMPERSLASYGVSQDGDPAFLYLLSAPREVSGQSLQNSKMDRKLGLFPQSLGLPHDLQPSSSSLPSPSQPGWSCPSCTFINASNRPGCEMCSTQRPCAWDPLAAAST
On to B2, for which the binding entry in assay [2] is reported as “binds”.

B3: MBP-mSHARPIN_(163–301) L176A/I180A (domain or fragment, UniProt Q91WA6 163-301)
chain: SSGNFKKEELATRASQAAAGGDEKAAAQVAAVLAQHHVALNVQLMEAWFPPGPIRLQVTVEDATSVLSSSSSAHVSLKIHPHCSIAALQDQVFSEFGFPPAVQRWVIGRCLCMPERSLASYGVSQDGDPAFLYLLSAPR
B3: the binding entry in assay [3] is “no binding (tested: 40 mM (as printed in the legend))”.
